The values that follow come from PubChem BioAssay AID260 (DTP/NCI, 2004).

The assay concerns CD2F1 mice, intracerebral L1210 leukemia, survival T/C. The assay is described as follows: NCI In Vivo Anticancer Drug Screen. Data for tumor model L1210 Leukemia (intracerebral) in CD2F1 (CDF1) mice. The following applies: higher T/C = longer survival. As for the experimental part: The antitumor activity of compounds was measured in mice bearing transplantable tumors. Survival or tumor size were measured and the results are expressed as the measurement made in the treated group (T) divided by the measurement made in the vehicle treated control group (C). The tumor model used in this assay is L1210 Leukemia (intracerebral) in CD2F1 (CDF1) mice

Setting [1] is: T/C endpoint: median survival time, dose: 32.0 mg/kg/injection, schedule: Q01DX005 (ip), vehicle: saline with Tween-80.
[2] abbreviates: T/C endpoint: median survival time, dose: 64.0 mg/kg/injection, schedule: Q01DX005 (ip), vehicle: saline with Tween-80.
The mark [3] stands for this setting: T/C endpoint: median survival time, dose: 128.0 mg/kg/injection, schedule: Q01DX005 (ip), vehicle: saline with Tween-80.
Where [4] appears, read: T/C endpoint: median survival time, dose: 256.0 mg/kg/injection, schedule: Q01DX005 (ip), vehicle: saline with Tween-80.

The list shows only some results of the screen, not a fair sample: its compounds were picked by chemical class. Other doses and runs of a compound may be missing. T/C is the treated group as % of the vehicle group. Some entries give survivors of the animals treated and no T/C: the source files T/C as zero there, which appears to mark a toxic dose or a test without result, not a measured value. Counts of survivors are from the toxicity check (mostly the fifth day) where no day follows; animals may have died later. Schedules are NCI's codes, read here as Q, the interval in days (D) or hours (H), X, the number of doses. Where survival is the endpoint, this PubChem deposit counts one and a half times the control or more as active, and values a quarter to a half above the control carry no call in these data; other NCI protocols may use other cut-offs. Some T/C values carry the count of animals alive at the toxicity check (mostly the fifth day); without a count or a note in brackets, all were alive then.

Regarding `NC(=O)c1[nH]cnc1/N=N\N(CCCl)CCCl`, the T/C by setting is: under setting [1], 127 % of control; under setting [2], 130 % of control; under setting [3], 140 % of control; under setting [4], 134 % of control. For the setting “T/C endpoint: median survival time, dose: 512.0 mg/kg/injection, schedule: Q01DX005 (ip), vehicle: saline with Tween-80”, the survivor count is listed as 2 of 6.
As to `O=P1(N(CCCl)CCCl)OCCCN1CCCl` (centres undefined), the T/C (T/C endpoint: mean survival time, dose: 50.0 mg/kg/injection, schedule: Q01DX001 (ip), vehicle: water) is 129 % of control; the T/C (T/C endpoint: mean survival time, dose: 100.0 mg/kg/injection, schedule: Q01DX001 (ip), vehicle: water) was 133 % of control; the T/C (T/C endpoint: mean survival time, dose: 200.0 mg/kg/injection, schedule: Q01DX001 (ip), vehicle: water) is 143 % of control [7 of 8 alive]. Besides, the survivor count (T/C endpoint: mean survival time, dose: 400.0 mg/kg/injection, schedule: Q01DX001 (ip), vehicle: water) is 2 of 8.
With `CN(CCCl)/N=N/c1nc[nH]c1C(N)=O`, the T/C was 110 % of control under setting [1]; 124 % of control under setting [2]; 136 % of control under setting [3]; 112 % of control under setting [4]; 87 % of control (T/C endpoint: median survival time, dose: 400.0 mg/kg/injection, schedule: Q01DX005 (ip), vehicle: saline with Tween-80).
